# Literature values as cited in patent US20100297025A1, “Novel compositions magnetic particles covered with gem-bisphosphonate derivatives” (Guerbet., priority 2002, published 2010).
# The chains behind the UniProt entries cited, without tags or fusion partners. Residues count along the entry.
# UniProt P05106, 27-788 limits assumed: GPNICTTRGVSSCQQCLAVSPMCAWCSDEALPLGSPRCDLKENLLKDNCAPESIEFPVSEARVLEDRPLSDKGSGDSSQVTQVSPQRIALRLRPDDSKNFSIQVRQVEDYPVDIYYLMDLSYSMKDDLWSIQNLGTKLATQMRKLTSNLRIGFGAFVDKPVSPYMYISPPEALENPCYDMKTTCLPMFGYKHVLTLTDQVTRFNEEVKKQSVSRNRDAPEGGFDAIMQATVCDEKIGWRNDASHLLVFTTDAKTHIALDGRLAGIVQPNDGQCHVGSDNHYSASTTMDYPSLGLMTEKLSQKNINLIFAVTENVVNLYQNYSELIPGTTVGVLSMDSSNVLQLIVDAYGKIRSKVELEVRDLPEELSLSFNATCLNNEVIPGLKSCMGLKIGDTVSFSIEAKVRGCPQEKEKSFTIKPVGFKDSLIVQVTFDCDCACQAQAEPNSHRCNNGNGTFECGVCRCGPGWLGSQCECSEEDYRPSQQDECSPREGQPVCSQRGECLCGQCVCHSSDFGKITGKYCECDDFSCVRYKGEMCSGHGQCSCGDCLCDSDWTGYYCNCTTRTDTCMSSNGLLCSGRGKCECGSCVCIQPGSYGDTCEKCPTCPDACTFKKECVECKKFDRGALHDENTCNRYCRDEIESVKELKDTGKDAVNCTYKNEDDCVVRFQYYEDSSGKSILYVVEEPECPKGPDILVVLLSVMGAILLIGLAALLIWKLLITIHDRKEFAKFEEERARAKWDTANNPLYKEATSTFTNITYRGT
# UniProt P06756, 31-1048 limits assumed: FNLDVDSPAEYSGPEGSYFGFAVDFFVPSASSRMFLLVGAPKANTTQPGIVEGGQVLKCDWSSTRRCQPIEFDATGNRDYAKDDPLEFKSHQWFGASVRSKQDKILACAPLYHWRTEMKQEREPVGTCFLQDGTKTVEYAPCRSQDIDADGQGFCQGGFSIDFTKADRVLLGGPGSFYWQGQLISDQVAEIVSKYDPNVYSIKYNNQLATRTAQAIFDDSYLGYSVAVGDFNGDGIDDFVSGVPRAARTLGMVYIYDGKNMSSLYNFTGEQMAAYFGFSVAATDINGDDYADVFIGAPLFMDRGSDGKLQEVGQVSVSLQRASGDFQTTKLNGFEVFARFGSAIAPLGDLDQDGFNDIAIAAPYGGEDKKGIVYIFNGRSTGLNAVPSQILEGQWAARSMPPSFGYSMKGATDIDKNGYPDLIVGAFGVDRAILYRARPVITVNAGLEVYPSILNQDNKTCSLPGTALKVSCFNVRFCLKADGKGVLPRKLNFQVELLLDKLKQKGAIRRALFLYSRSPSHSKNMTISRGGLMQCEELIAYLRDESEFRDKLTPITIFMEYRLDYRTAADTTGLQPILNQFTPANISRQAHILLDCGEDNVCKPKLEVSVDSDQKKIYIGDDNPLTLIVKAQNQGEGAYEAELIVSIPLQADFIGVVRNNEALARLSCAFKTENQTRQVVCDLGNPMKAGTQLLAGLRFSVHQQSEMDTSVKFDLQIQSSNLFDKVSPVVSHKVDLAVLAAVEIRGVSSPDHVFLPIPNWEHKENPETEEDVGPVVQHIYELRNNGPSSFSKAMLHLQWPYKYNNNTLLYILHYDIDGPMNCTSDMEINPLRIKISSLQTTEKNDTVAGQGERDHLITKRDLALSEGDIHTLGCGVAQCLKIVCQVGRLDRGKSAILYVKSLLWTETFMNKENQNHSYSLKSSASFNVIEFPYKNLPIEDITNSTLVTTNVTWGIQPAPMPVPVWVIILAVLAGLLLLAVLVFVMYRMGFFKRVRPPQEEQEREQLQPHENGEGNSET
# UniProt P08514, 32-1039 limits assumed: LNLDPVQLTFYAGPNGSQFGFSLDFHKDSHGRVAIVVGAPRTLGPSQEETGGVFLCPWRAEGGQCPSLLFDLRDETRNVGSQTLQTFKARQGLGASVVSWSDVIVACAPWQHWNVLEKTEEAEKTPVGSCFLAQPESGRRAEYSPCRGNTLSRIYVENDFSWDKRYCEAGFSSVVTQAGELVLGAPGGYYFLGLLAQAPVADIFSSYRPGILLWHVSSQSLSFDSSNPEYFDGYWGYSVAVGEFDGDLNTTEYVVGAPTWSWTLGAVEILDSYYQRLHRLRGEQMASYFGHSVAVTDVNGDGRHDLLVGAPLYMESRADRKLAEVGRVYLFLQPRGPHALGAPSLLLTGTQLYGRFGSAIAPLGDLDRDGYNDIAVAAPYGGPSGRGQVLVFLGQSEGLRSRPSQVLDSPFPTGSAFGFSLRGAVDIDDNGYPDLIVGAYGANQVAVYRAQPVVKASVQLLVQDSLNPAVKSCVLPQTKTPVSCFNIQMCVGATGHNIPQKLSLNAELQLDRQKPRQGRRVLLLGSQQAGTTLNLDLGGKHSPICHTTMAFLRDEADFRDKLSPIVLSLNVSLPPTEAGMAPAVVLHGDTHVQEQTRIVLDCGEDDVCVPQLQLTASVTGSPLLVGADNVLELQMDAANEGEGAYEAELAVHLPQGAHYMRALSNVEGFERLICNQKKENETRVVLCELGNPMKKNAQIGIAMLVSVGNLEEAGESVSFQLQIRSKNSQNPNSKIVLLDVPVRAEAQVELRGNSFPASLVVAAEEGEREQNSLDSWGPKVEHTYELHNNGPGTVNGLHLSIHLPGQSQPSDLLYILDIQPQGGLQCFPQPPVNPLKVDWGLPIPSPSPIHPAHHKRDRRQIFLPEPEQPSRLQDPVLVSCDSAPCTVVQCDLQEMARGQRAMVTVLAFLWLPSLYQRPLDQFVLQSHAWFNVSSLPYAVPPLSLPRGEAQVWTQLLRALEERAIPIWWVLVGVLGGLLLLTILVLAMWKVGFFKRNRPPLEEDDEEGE
# Structures were worked out from names or drawings and are uncertain.
# Columns and labels:
# αvβ3 = αvβ3 (Homo sapiens, UniProt P05106+P06756); conditions: cited from earlier work
# αIIbβ3 = αIIbβ3 (Homo sapiens, UniProt P05106+P08514); conditions: cited from earlier work
compound,measurement,setting,value
CC(C)(C)[C@@H]1NC(=O)[C@H](CC(=O)O)NC(=O)[C@H](CC(=O)O)NC(=O)CNC(=O)[C@H](CCCNC(=N)N)NC(=O)c2cccc(c2)CNC1=O,IC50,αvβ3,0.0006 µM
same,IC50,αIIbβ3,14 µM
